Measured values published in patent US5846742A, “Selecting substances for treating glucocorticoid-mediated inflammation or immune diseases using Tripterygium wilfordii Hook F extracts” (Board of Regents, The University of Texas System, priority 1997, dated 1998).

System: anti-cortisol antibody
Assay: Cortisol RIA
Assay type: binding
Conditions: A ring-directed antibody, FIG. 28

SMILES	Cortisol-like immunoreactivity of purified compounds
CC(C)[C@]12O[C@H]1[C@@H]1O[C@]13[C@]1(O[C@H]1C[C@H]1C4=C(CC[C@@]13C)C(=O)OC4)[C@@H]2O [Triptolide, triptolide]	fails to detect cortisol-like immunoreactivity
CC(C)[C@]12O[C@H]1[C@@H]1O[C@]13[C@]1(O[C@H]1C[C@H]1C4=C(C(=O)OC4)[C@@H](O)C[C@@]13C)[C@@H]2O [Tripdiolide, tripdiolide]	fails to detect cortisol-like immunoreactivity
CC(C)c1ccc2c(c1O)CC[C@H]1C3=C(CC[C@]21C)C(=O)OC3 [Triptophenolide, triptophenolide]	may have low affinity immunoreactivity
